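Whole-parasite assay of Trypanosoma brucei over 72 hours; the read-out is not stated. Concentration: 30 µM. Higher reads as stronger inhibition (inferred: compounds with an IC50 in retests scored well above the rest). Values scatter widely below zero; nearly all retest evidence comes from the higher of the two concentrations used. Size under these conditions: about 64,000 compounds, about 940 of them at 50% or above in at least one test.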

Values are the deposited “Percent Effect”, in %.
How 0% and 100% were set is not recorded. Most values in the screen are low, and negative values occur.
The compounds are a random part of those screened.

| structure | effect |
|---|---|
| `[H][C@]12CC[C@]([H])(CN(S(=O)(=O)N(C)C)C1)N(C(=O)c1cnc(C)nc1C)C2` | 24.38 |
| `CN(Cc1cccnc1)CC1CC12CCN(c1nncs1)CC2.O=C(O)C(F)(F)F.O=C(O)C(F)(F)F.O=C(O)C(F)(F)F` (stereo not shown) | -30.18 |
| `CCc1cccc(OC2CN(C(=O)[C@@H](N)[C@@H](C)O)C2)c1` | 7.838 |
| `Cc1cnn(CCC(=O)N2CCCC(c3ccn[nH]3)C2)c1` (stereo not shown) | -6.249 |
| `Cn1cncc1-c1nnc([C@H]2CCN(CC(C)(C)C)C2)o1` | -36.46 |
| `O=C(C1CCOC1)N1CCN(CC2CC2)c2ccccc21` (stereo not shown) | -19.7 |
| `COc1ccnc(N2CCN(C(=O)c3cscn3)CC2)n1` | 5.532 |
| `CCn1c(CN(C)CC(F)(F)F)nc2c(F)cccc21` | -59.13 |
| `CC(=O)NC(C(=O)N(C)Cc1nnc2n1CCC2)C(C)C` (stereo not shown) | -101.5 |
| `CCn1cnnc1CNC(=O)N(C)Cc1ccc(Cl)cc1Cl` | -47.37 |
| `Cc1c(-c2ccccc2)ncn1CCCNc1cccnc1` | -17.48 |
| `Cc1ncc(CC(=O)N2CCCC(COc3ccccc3F)C2)c(=O)[nH]1` (stereo not shown) | -96.2 |
| `CC(=O)N1CCCC(C(=O)N2CCC(=Cc3cccc(F)c3)CC2)C1` (stereo not shown) | -26.36 |
| `CNC(=O)CCN(C)c1nc(-c2ccncc2)nc2c1CCNC2` | 10.08 |
| `CN(Cc1cn2c(n1)CN(c1ncc(F)cn1)CC2)Cc1ccco1.O=C(O)C(F)(F)F.O=C(O)C(F)(F)F` | 6.327 |
| `CCC(C)Sc1ncc(-c2c(C#N)c(N)nc3c2COCC3)cn1` (stereo not shown) | -32.87 |
| `O=C(O)C(F)(F)F.O=C(O)C(F)(F)F.O=C(c1ccnnc1)N1CCN(Cc2ccncc2)c2ncccc2C1` | -2.542 |
| `CCc1c(C)nc2cc(C3CCN(Cc4ccncc4C)C3)nn2c1O` (stereo not shown) | 5.065 |
| `O=C(O)C(F)(F)F.O=C(O)C(F)(F)F.O=C(c1cccnc1)N1CCC[C@]2(C[C@H](Oc3ncccc3F)CO2)C1` | -21.4 |
| `CC(C)CC1SCC(=O)Nc2c1cnn2-c1ccccc1F` (stereo not shown) | -23.94 |
| `O=c1[nH]c2nc(N3CCCC3)ncc2c(=O)n1-c1cccc(F)c1` | -12.28 |
| `CS(=O)(=O)c1ccc2c(c1)nc1n2[C@@H](CNCc2cccnc2)COC1` | -7.405 |
| `CC(C)COCCNC1CCN(c2ccccn2)CC1` | 3.995 |
| `[H][C@@]12CCN(Cc3cccnc3)C[C@@]1([H])[C@H](C(=O)N1CCCCO1)CCO2` | 6.252 |
| `CC(C)N(C)C(=O)c1coc(CN2CCN(c3ccccc3F)CC2)n1` | -19.18 |
| `Cn1cc(C2CCCN2Cc2csc(C(C)(C)C)n2)cn1` (stereo not shown) | 87.76 |
| `OCCN(Cc1nc(-c2ccc3c(c2)OCO3)no1)Cc1cccs1` | -16.51 |
| `CN(C)C(=O)COCC1CN(Cc2ccco2)Cc2ncn(C)c21.O=C(O)C(F)(F)F.O=C(O)C(F)(F)F` (stereo not shown) | -50.39 |
| `COc1ccccc1OC1(C(=O)O)CCN(c2ncccc2F)CC1` | -4.211 |
| `Cc1nn(CC(=O)N(C)Cc2nncn2C(C)C)c(=O)c2ccccc12` | -29.36 |
| `O=C(Nc1ccccc1)N1CCN(Cc2noc(C3CC3)n2)CC1` | -13.48 |
| `O=C(O)C(F)(F)F.O=C1CC2(CCN(Cc3ccco3)C2)CN1c1ccc2c(c1)OCO2` (stereo not shown) | 43.65 |
| `CC(Cn1ccnc1)NC(=O)N(C)Cc1ccsc1` (stereo not shown) | -0.8873 |
| `[H][C@@]12CS(=O)(=O)C[C@]1([H])N(Cc1ncc[nH]1)CCN2C/C=C/c1ccccc1` | -14.18 |
| `CCN(CC)S(=O)(=O)CC(=O)N1CCc2ccc(F)cc21` | 13.55 |
| `COC(=O)c1cc(OCC2CCC2)cc(C(=O)NCC(C)(C)O)c1` | -11.93 |
| `O=C(c1ccoc1)N1CCC2(C1)CN(c1ncc(F)cn1)C2` | -22.8 |
| `CCn1cc(-c2n[nH]c(=O)n2-c2ccc3c(c2)OCO3)c(C)n1` | -12.46 |
| `CC(=O)N1CCCC1CCc1ccc(Cl)nn1` (stereo not shown) | -6.054 |
| `CC(NC(=O)Nc1nccs1)C(=O)NC1CCCC1` (stereo not shown) | -0.2762 |
| `[H][C@@]12CCN(Cc3ccco3)C[C@@]1([H])O[C@@H](C)C2` | -2.454 |
| `CN(C)C(=O)C1(Oc2ccc(Cl)cc2)CCNCC1` | -28.66 |
| `O=C(CN1CCCC1COc1ccccc1)NCc1ccccn1` (stereo not shown) | 10.21 |
| `O=C(O)C(F)(F)F.[H][C@@]12CCN(C(=O)c3cccn3C)[C@@]1([H])CC(=O)N2CCN1CCOCC1` | -22.22 |
| `CC(C)c1noc(C2CCCN2C(=O)CN2CCc3ccccc32)n1` (stereo not shown) | -54.82 |
| `COCC1c2nnn(CC3CC3)c2CCN1C(=O)C1CCOCC1` (stereo not shown) | -138.2 |
| `CCOc1ccc(-c2nc(C(=O)NCC3CCOC3)cs2)cc1` (stereo not shown) | 1.22 |
| `Cc1cnn(CCNCc2nccn2Cc2ccccc2)c1` | -52.65 |
| `O=S(=O)(CCN1CCN(c2ccccc2O)CC1)c1ccc(Br)cc1` | -11.3 |
| `CN1CCOCC2(CCCN(C(=O)c3cnccn3)C2)C1.O=C(O)C(F)(F)F` (stereo not shown) | -1.236 |
| `CC(C1CCN(Cc2c(Cl)cncc2Cl)CC1)N1CCN(C)CC1` (stereo not shown) | -15.56 |
| `CCOc1ccc(S(=O)(=O)N(CCOC)Cc2ccncc2)cc1F` | -20.14 |
| `c1cc(CCN2CCCC2CN2CCCCC2)ccn1` (stereo not shown) | -68.91 |
| `CN(Cc1cccc(F)c1)C1CCN(CCc2ccccn2)CC1` | -32.14 |
| `Cc1nccnc1-n1c(COCC(=O)O)nc2c(C)cccc21` | -4.673 |
| `O=c1cc(CN2CCC(CCc3ccc(O)cc3)CC2)[nH]c(=O)[nH]1` | -25.87 |
| `Cc1c(S(=O)(=O)NCC(C)C)cnn1C` | -4.697 |
| `CC(CN1CCOCC1)n1cncc1-c1cnn(Cc2ccccc2)c1` (stereo not shown) | -14.23 |
| `COC(=O)NCCC(=O)NC(C)Cc1ccccc1Br` (stereo not shown) | -11.35 |
| `I.c1ccc(OCCNC2=NCCCN2)cc1` | -0.004482 |
| `Cc1ccc(CN2CCC3(CC2)CCN(C(=O)c2cccn2C)C3)cc1.O=C(O)C(F)(F)F` | 16 |
| `CC(C)(C)n1cc(C2=CCN(CCNC(=O)c3ccccc3)CC2)cn1` | -14.21 |
| `O=C(NCCNc1ncccn1)C1CCN(C(=O)C2CC2)CC1` | -1.097 |
| `COCCn1ccc(NC(=O)Nc2ccc(C(N)=O)c(F)c2)n1` | 2.523 |
| `CC(=O)Nc1ccc2c(c1)nc1n2[C@@H](CNCc2ccccc2)COC1` | -9.536 |
| `Cc1ccc(CN2CCC3(CC2)CN(c2cnn(C)c2)C(=O)CO3)o1.O=C(O)C(F)(F)F` | -12.01 |
| `CN1CCC(N[C@@H]2CO[C@H](CNC(=O)Nc3ccccc3)[C@H]2O)CC1` | -2.456 |
| `Cc1nn(C)c(C)c1C(C)NCc1ccsc1` (stereo not shown) | -19.23 |
| `COc1nc(C)cc(C)c1CNC(=O)N(C)Cc1cnn(C)c1` | 21.85 |
| `Cc1noc(C)c1CN1CCc2ncc(CN3CCCC3)n2CC1.O=C(O)C(F)(F)F.O=C(O)C(F)(F)F` | -34.05 |
| `Cc1occc1CN(C)Cc1nc2c(cnn2C)c(=O)[nH]1` | 27.06 |

Source: ChEMBL document CHEMBL3988442, “University of Dundee, Small-Polar-MMV Screening Library” (2021).